Some results come without the dose or concentration used.

This data set concerns M. fuliginosus FaNaC1. Description: Two-electrode voltage clamp of oocytes expressing M. fuliginosus FaNaC1. As to conditions: voltage ramps -80 mV to 80 mV, n = 4. The data set is classed as cell-based, Malacoceros fuliginosus. The text has this: A. kurodai FaNaC (NCBI GenBank: AB206707.1) and M. fuliginosus FaNaC1 (NCBI GenBank: ON156825.1) cDNAs in tailored pSP64 plasmid vectors including Xenopus laevis UTRs and poly(A) sequences have been described at length previously ([9],[16]). A. kurodai FaNaC F188Y, F188tag (amber stop codon), F453Y, and F453tag mutants were generated by site-directed mutagenesis as detailed in ([17]) with custom primers (Merck) and PCR with Phusion High-Fidelity DNA polymerase (Thermo Fisher). All coding sequences were confirmed by Sanger sequencing (Genewiz). Plasmid DNA was linearized by digesting with EcoRI (Thermo Fisher) and purified with the DNA Clean & Concentrator Kit (Zymo). mRNA was then transcribed using the mMESSAGE mMACHINE SP6 Transcription Kit (Thermo Fisher) and purified with the RNeasy Mini Kit (Qiagen). […]
Two-electrode voltage clamp experiments were performed 24–36 h after injection. […] Data were recorded at 1000 Hz and filtered at 100–200 Hz. […]
Current amplitude was measured in Clampfit 11.1 (Molecular Devices), and subsequent data analyses were performed in Prism v9 (GraphPad Software). […] This yielded n = 3 oocytes for responses to different concentrations, against which a single curve was fitted and half-maximal effective concentration (EC50) was calculated. […]

For the substance H-Phe-Met-Arg-Phe-NH2 [FMRFa], the “Erev of FMRFa-gated current” value was 38 mV (extracellular 140Na,1mMCa) and -2 mV (extracellular ~1Na,10Ca).

These data come from PMC11993918, “Flipped binding modes for the same agonist in closely related neuropeptide-gated ion channels” (Biophysical Journal, 2025).
